Here are results for 5 compounds from PubChem BioAssay AID256 (DTP/NCI, 2004).

This test has as its system CD2F1 mice, L1210 leukemia ip, survival T/C. In words: NCI In Vivo Anticancer Drug Screen. Data for tumor model L1210 Leukemia (intraperitoneal) in CD2F1 (CDF1) mice. Conditions: higher T/C = longer survival. The method in brief: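 Compound-dosed mice with transplantable tumor versus matched vehicle controls; endpoint ratio T/C reported.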
Setting [1] is: T/C endpoint: median survival time, dose: 350.0 mg/kg/injection, schedule: Q01DX009 (ip), vehicle: saline.

The list is a part of this screen's results and no random one: it gathers tests that were run many times, whatever their T/C, doses with no T/C, and many T/C values between a quarter and a half above the control. Further doses and runs are listed elsewhere. T/C gives the treated animals as a percentage of the vehicle group. Some doses have a count of surviving animals in place of a T/C: the source files T/C as zero there, which appears to mark a toxic dose or a test without result, not a measured value. Some doses without a T/C left all or most animals alive at the check, yet need not have been tolerated: the source hardly ever lists a survival T/C far under the control, and the zero likely stands for such cases as well. Counts of survivors are from the toxicity check (mostly the fifth day) where no day follows; animals may have died later. Schedules are NCI's codes, taken here to give the interval after Q, in days (D) or hours (H), and the number of doses after X. Some structures stand for samples that the source files as different forms (salt, stereo form or complex); doses refer to the form tested. For survival time, the PubChem record calls one and a half times the control and up active, and a quarter to a half above the control has no call in these data; cut-offs in other NCI protocols can differ. Some doses were run more than once; their values stand side by side, smallest first. Some T/C values are followed by the survivors on the day toxicity was checked, most often the fifth; without a count, all were alive then.

Take `Nc1nc(F)nc2c1ncn2C1OC(COP(=O)(O)O)C(O)C1O` (centres undefined): the T/C (T/C endpoint: mean survival time, dose: 59.32 mg/kg/injection, schedule: Q01DX009 (ip), vehicle: saline with Tween-80) is 144 % of control; the T/C (T/C endpoint: mean survival time, dose: 59.32 mg/kg/injection, schedule: Q01DX009 (ip), vehicle: saline) was 128 % of control; the T/C (T/C endpoint: mean survival time, dose: 60.0 mg/kg/injection, schedule: Q01DX009 (ip), vehicle: saline) is 125 and 127 % of control; the T/C (T/C endpoint: mean survival time, dose: 88.98 mg/kg/injection, schedule: Q01DX009 (ip), vehicle: saline) was 126 % of control; the T/C (T/C endpoint: mean survival time, dose: 90.0 mg/kg/injection, schedule: Q01DX009 (ip), vehicle: saline) is 132 and 133 % of control; the T/C (T/C endpoint: mean survival time, dose: 200.0 mg/kg/injection, schedule: Q01DX009 (ip), vehicle: saline) was 149 % of control. Also, the T/C (T/C endpoint: mean survival time, dose: 256.0 mg/kg/injection, schedule: Q01DX009 (ip), vehicle: saline) is 133 % of control; the T/C (T/C endpoint: median survival time, dose: 25.0 mg/kg/injection, schedule: Q03HX024 (ip), vehicle: sodium bicarbonate) is 126 % of control; the T/C (T/C endpoint: median survival time, dose: 50.0 mg/kg/injection, schedule: Q03HX008 (ip), vehicle: sodium bicarbonate) was 132 % of control; the T/C (T/C endpoint: median survival time, dose: 60.0 mg/kg/injection, schedule: Q01DX009 (ip), vehicle: saline, evaluated on day 30) was 142 % of control; the T/C (T/C endpoint: median survival time, dose: 60.0 mg/kg/injection, schedule: Q01DX009 (ip), vehicle: saline, evaluated on day 60) was 145 % of control; the T/C (T/C endpoint: median survival time, dose: 70.0 mg/kg/injection, schedule: Q01DX009 (ip), vehicle: saline) is 127 and 135 % of control. For the same compound, the T/C was 145 % of control (T/C endpoint: median survival time, dose: 74.1 mg/kg/injection, schedule: Q01DX009 (ip), vehicle: saline); 138 % of control (T/C endpoint: median survival time, dose: 75.0 mg/kg/injection, schedule: Q03HX008 (ip), vehicle: sodium bicarbonate); 146 % of control (T/C endpoint: median survival time, dose: 105.0 mg/kg/injection, schedule: Q01DX009 (ip), vehicle: saline); 137 % of control (T/C endpoint: median survival time, dose: 118.0 mg/kg/injection, schedule: Q01DX005 (iv), vehicle: sodium bicarbonate); 132 % of control [9 of 10 alive] (T/C endpoint: median survival time, dose: 200.0 mg/kg/injection, schedule: Q01DX005 (oral), vehicle: sodium bicarbonate); 127 % of control (T/C endpoint: median survival time, dose: 234.0 mg/kg/injection, schedule: Q01DX009 (ip), vehicle: saline). The T/C reads like this: (T/C endpoint: median survival time, dose: 266.0 mg/kg/injection, schedule: Q01DX001 (iv), vehicle: sodium bicarbonate) 126 % of control; (T/C endpoint: median survival time, dose: 333.0 mg/kg/injection, schedule: Q01DX009 (ip), vehicle: saline) 142 % of control; under setting [1], 135 % of control; (T/C endpoint: median survival time, dose: 400.0 mg/kg/injection, schedule: Q01DX001 (ip), vehicle: sodium bicarbonate) 128 % of control; (T/C endpoint: median survival time, dose: 400.0 mg/kg/injection, schedule: Q01DX005 (ip), vehicle: sodium bicarbonate) 125 % of control; (T/C endpoint: median survival time, dose: 400.0 mg/kg/injection, schedule: Q01DX005 (oral), vehicle: sodium bicarbonate) 132 % of control [8 of 10 alive]. Moreover, the T/C (T/C endpoint: median survival time, dose: 600.0 mg/kg/injection, schedule: Q01DX001 (ip), vehicle: sodium bicarbonate) is 125 % of control; the T/C (T/C endpoint: median survival time, dose: 600.0 mg/kg/injection, schedule: Q01DX001 (iv), vehicle: sodium bicarbonate) is 128 % of control; the T/C (T/C endpoint: median survival time, dose: 800.0 mg/kg/injection, schedule: Q01DX001 (ip), vehicle: saline) is 129 % of control [9 of 10 alive]; the T/C (T/C endpoint: median survival time, dose: 900.0 mg/kg/injection, schedule: Q01DX001 (ip), vehicle: sodium bicarbonate) is 142 % of control; the T/C (T/C endpoint: median survival time, dose: 1000.0 mg/kg/injection, schedule: Q04DX003 (ip), vehicle: sodium bicarbonate) is 141 % of control [9 of 10 alive]; the T/C (T/C endpoint: median survival time, dose: 1200.0 mg/kg/injection, schedule: Q01DX001 (ip), vehicle: saline) is 147 % of control [9 of 10 alive]. For the same compound, the T/C (T/C endpoint: median survival time, dose: 1500.0 mg/kg/injection, schedule: Q01DX001 (ip), vehicle: saline) is 146 % of control [7 of 10 alive]. Also, the survivor count is reported as 5 of 6 (T/C endpoint: mean survival time, dose: 300.0 mg/kg/injection, schedule: Q01DX009 (ip), vehicle: saline with Tween-80); 5 of 6 (T/C endpoint: mean survival time, dose: 300.0 mg/kg/injection, schedule: Q01DX009 (ip), vehicle: saline); 6 of 6 under setting [1]; 8 of 9 (T/C endpoint: median survival time, dose: 600.0 mg/kg/injection, schedule: Q01DX005 (ip), vehicle: sodium bicarbonate); 3 of 10 (T/C endpoint: median survival time, dose: 600.0 mg/kg/injection, schedule: Q01DX005 (iv), vehicle: sodium bicarbonate); 5 of 10 (T/C endpoint: median survival time, dose: 900.0 mg/kg/injection, schedule: Q01DX001 (iv), vehicle: sodium bicarbonate). Also, the survivor count is, setting by setting: (T/C endpoint: median survival time, dose: 1350.0 mg/kg/injection, schedule: Q01DX001 (ip), vehicle: sodium bicarbonate) 6 of 10; (T/C endpoint: median survival time, dose: 1350.0 mg/kg/injection, schedule: Q01DX001 (iv), vehicle: sodium bicarbonate) 2 of 10; (T/C endpoint: median survival time, dose: 1800.0 mg/kg/injection, schedule: Q01DX001 (ip), vehicle: saline) 6 of 10.

Take `Clc1ccc(COCc2ccccc2Cn2ccnc2)cc1`: the survivor count is reported as 3 of 6 (T/C endpoint: mean survival time, dose: 200.0 mg/kg/injection, schedule: Q01DX009 (ip), vehicle: saline with Tween-80) and 0 of 6 (T/C endpoint: mean survival time, dose: 400.0 mg/kg/injection, schedule: Q01DX009 (ip), vehicle: saline with Tween-80).

`Cc1c(N)cc([N+](=O)[O-])c(C)c1[N+](=O)[O-]`: the survivor count (T/C endpoint: mean survival time, dose: 400.0 mg/kg/injection, schedule: Q04DX003 (ip), vehicle: saline with Tween-80) was 3 of 6.

For the compound `CC(C)=CC1CC(C)C2(CCC3(C)CC4C(C(=O)CC4(C)O)/C(C=O)=C\CC32)O1` (centres undefined), the survivor count is, setting by setting: (T/C endpoint: mean survival time, dose: 18.75 mg/kg/injection, schedule: Q01DX009 (ip), vehicle: saline with Tween-80) 3 of 6; (T/C endpoint: mean survival time, dose: 37.5 mg/kg/injection, schedule: Q01DX009 (ip), vehicle: saline with Tween-80) 0 of 6; (T/C endpoint: mean survival time, dose: 75.0 mg/kg/injection, schedule: Q01DX009 (ip), vehicle: saline with Tween-80) 0 of 6.

Turning to `CCC(O)C[As](=O)(O)c1cccc(Cl)c1` (centres undefined), the survivor count runs as follows: (T/C endpoint: mean survival time, dose: 25.0 mg/kg/injection, schedule: Q01DX001 (ip), vehicle: saline with Tween-80) 0 of 6; (T/C endpoint: mean survival time, dose: 50.0 mg/kg/injection, schedule: Q01DX001 (ip), vehicle: saline with Tween-80) 0 of 6; (T/C endpoint: mean survival time, dose: 100.0 mg/kg/injection, schedule: Q01DX001 (ip), vehicle: saline with Tween-80) 0 of 6.
